From ChEMBL document CHEMBL3988442, “University of Dundee, Small-Polar-MMV Screening Library” (2021).

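Phenotypic screen: M. tuberculosis growth, cholesterol and DPPC medium, 4 days; the read-out is not stated. Tested at 50 µM. Higher reads as more growth inhibition (inferred: compounds with an IC50 in retests scored well above the rest). About 69,000 compounds were tested under these conditions; 0.54% (about 370) showed 50% or more at least once.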

Results are given as percent effect. How 0% and 100% were set is not recorded. Most values in the screen are low, and negative values occur. This is an unselected part of the compounds tested. Two or more numbers in one place are separate tests of the same structure; such repeats can differ widely.

For CS(=O)(=O)c1nnc(NC(=O)CCc2cccc(Cl)c2)[nH]1 the result was -14.94%.
For O=C(N[C@H]1COC[C@@H]1N1CCCC1)c1csc(Cc2ccccc2)n1 the result was 9.987%.
For Cc1nc(-c2cccs2)ccc1C(=O)N1CCN(CCO)CC1 the result was -3.797%.
For O=C(Cn1cc(C2CC2)nn1)N(Cc1cccs1)CC1CCCO1 (configuration not stated) the result was -20.32%.
For CN[C@@H]1CCC[C@@H](Oc2ccccc2Oc2ccc(C)cc2)[C@@H]1O the result was 54.54% and 46.96%.
For CC(C)(C)c1n[nH]c(C2CN(C(=O)c3cnc[nH]3)CCO2)n1 (configuration not stated) the result was -2.965%.
For Cc1csc(N2CCN(CC(=O)Nc3ccncc3)CC2C)n1 (configuration not stated) the result was 3.689%.
For COC(C)(C)C(=O)NCC1CCN(Cc2cc3ccccc3[nH]2)C1 (configuration not stated) the result was -10.47%.
For Cn1cc(CN2CCC(c3cc(CCO)[nH]n3)C2)cn1 (configuration not stated) the result was 8.326% and -7.211%.
For COc1c(F)ccc(C(=O)N2CC[C@H](CO)[C@@H](O)C2)c1F the result was 7.555%.
For CC(=O)NCCc1ccc(S(=O)(=O)Nc2ccc(C)cc2F)s1 the result was -25.24%.
For CC(C)c1nccn1CCCNC(=O)c1ccc(-c2ccncc2)nc1 the result was -13.45%.
For [H][C@@]12CO[C@@H](CNS(C)(=O)=O)[C@]1([H])CCN(C(=O)c1ccc[nH]1)C2 the result was 10.92%.
For O=C1CSC(c2cccs2)c2cnn(C3CCCC3)c2N1 (configuration not stated) the result was -0.1529%.
For Fc1cccc(CN2CCC[C@H](Cn3nnc(-c4ccccn4)n3)C2)c1 the result was -24.66% and -18%.
For CC(=O)NCCC(=O)NCc1cccnc1-n1cnc2ccccc21 the result was 4.412%.
For Cc1cc2nc(C(C)C)cc(N(C)CC3CCN(C(C)C)C3)n2n1 (configuration not stated) the result was 19.94%.
For CC(C)CNS(=O)(=O)c1ccc(C(=O)N(C)CCc2cn[nH]c2)cc1 the result was 1.502%.
For O=C1CC(N(C(=O)c2ccccc2Br)C2CC2)C(=O)N1 (configuration not stated) the result was -8.963%.
For Cc1nn(C)cc1-c1cc(C(F)(F)F)nc(NC2CCCCC2)n1 the result was 22.07%.
For Cc1ccc(C(=O)NCCCS(C)(=O)=O)c(=O)[nH]1 the result was -17.16%.
For O=C(O)c1cc(S(=O)(=O)N2CCOc3ccccc32)ccc1Br the result was 11.76%.
For CC(C)c1nc(CSc2nnc(C3CC3)n2CC(N)=O)no1 the result was -10.93%.
For CCn1ncnc1CN1CCC(CNC(=O)c2cccnc2O)C1 (configuration not stated) the result was 12.53%.
For CNc1ncc2c(n1)CN(C1CCCC1)C2=O the result was 14.75%.
For c1cncc(-c2ccnn2CN2CCC3(CC2)OCCO3)c1 the result was -25.33%.
For CC(NC(=O)Nc1cc(F)ccc1N1CCCCC1)c1nncn1C (configuration not stated) the result was -15.97%.
For CC(C)C(=O)N1CCN(Cc2cnn(C)c2)CC2(CC(=O)N(C)C2)C1.O=C(O)C(F)(F)F (configuration not stated) the result was -1.975%.
For CC1(C)CNC(=O)c2nc(CCN3CCC(O)CC3)[nH]c2C1 the result was -31.87%.
For COCC(=O)N1CCCCC1c1ccnc(Nc2ncc(C)s2)n1 (configuration not stated) the result was -7.462%.
For CN(CC(=O)Nc1nc2c(s1)CCCCCC2)C(=O)c1ccco1 the result was -5.075%.
For CC(Cn1cccn1)NCc1nc(-c2ccccc2Cl)no1 (configuration not stated) the result was -12.58%.
For CSCCC(=O)N1CCC(CCC(=O)NCC2CCCO2)CC1 (configuration not stated) the result was 24.99%.
For Cc1cccc(-c2nc(CN3CC(n4nc(C)cc4C)C3)no2)c1 the result was -18.69%.
For O=C(O)C(F)(F)F.[H][C@]12CCC[C@@H](CN(C)C3CC3)[C@@]1([H])CN(c1cc(OC)ncn1)C2 the result was -19.58%.
For Clc1snnc1CN1CCCC1Cn1cncn1 (configuration not stated) the result was -32.79%.
For CC(C)N1CCN(C(=O)Cc2csc(-c3ccco3)n2)CC1 the result was -19.58%.
For [H][C@@]12COC[C@H](C(=O)N3CCOCC3)[C@]1([H])CN(CC1CC1)C2 the result was 1.755%.
For CCc1nccn1C1CCCN(C(=O)Cc2n[nH]c3ccccc23)C1 (configuration not stated) the result was -7.868%.
For [H][C@@]12CCN(C(=O)C3CCOCC3)[C@]1([H])CCC(=O)N2CCOC the result was -2.607%.
For CCn1cc(NC(=O)C(C)n2ncc(Cl)c2C)c(C(=O)NCC(C)C)n1 (configuration not stated) the result was 8.429%.
For COC(=O)c1ccc(C)c(N2CCNC2=O)c1 the result was -4.926%.
For CC(C)C(=O)NC1CCN(CCO)CC1 the result was -53.33% and -3.299%.
For CC(C)CC(CC(C)C)NC(=O)c1ccn(C)c(=O)c1 the result was 2.031%.
For CS(=O)(=O)c1ccc(NCC2CCCO2)c(S(C)(=O)=O)c1 (configuration not stated) the result was -3.292%.
For O=S(=O)(CC1CCCCO1)Nc1c(F)cccc1-n1cccn1 (configuration not stated) the result was 12.82%.
For CC(C)CN1CCCC2(CCN(C(=O)c3cnccn3)C2)C1 (configuration not stated) the result was -4.058%.
For [H][C@@]12CCN(C(=O)NC(C)C)CC[C@]1(C(=O)Nc1cccnc1)CCN2C the result was -11.67%.
For COC(=O)c1sc(C(NC(=O)c2ccccc2)C2CC2)nc1C (configuration not stated) the result was 4.299%.
For Cn1ncnc1CNC(=O)N(CCCO)C1CCc2ccccc21 (configuration not stated) the result was -9.589% and -9.286%.
For O=C(c1cscn1)N1CCC(Cc2cnc3[nH]ccc3c2)C1 (configuration not stated) the result was -10.38%.
For [H][C@]12C[C@H](C(=O)NC)N(C(C)=O)[C@@]1([H])CN(S(=O)(=O)c1ccccc1)C2 the result was -10.64%.
For CC(Oc1ccc(C(=O)NCCNS(C)(=O)=O)cn1)c1ccccc1 (configuration not stated) the result was 13.93%.
For O=C(O)C(F)(F)F.O=C(c1cccs1)N1CCCC2(COCCN(c3cccnc3)C2)C1 (configuration not stated) the result was 13.49% and -0.855%.
For Cc1cc(Br)cnc1NCCN1CCC(N(C)C)CC1 the result was 1.024%.
For Cn1cc(CCNC(=O)NCc2nnc3n2CCC3)cn1 the result was -3.173%.
For COCc1noc(CN2CCCCC2CCc2cccs2)n1 (configuration not stated) the result was 17.2%.

Once more, the final 5:

Compound,effect
CC(Oc1ccc(C(=O)NCCNS(C)(=O)=O)cn1)c1ccccc1 (configuration not stated),13.93
O=C(O)C(F)(F)F.O=C(c1cccs1)N1CCCC2(COCCN(c3cccnc3)C2)C1 (configuration not stated),13.49 and -0.855
Cc1cc(Br)cnc1NCCN1CCC(N(C)C)CC1,1.024
Cn1cc(CCNC(=O)NCc2nnc3n2CCC3)cn1,-3.173
COCc1noc(CN2CCCCC2CCc2cccs2)n1 (configuration not stated),17.2